Reference: the supplement of paper PMC10331698
± gives the standard deviation of the averaged measurements. Most values lie at the level of the controls, where differences are scatter.

Key:
Experiment in all cases: level (log10 ratio to DMSO vehicle control); higher = higher biomarker level / cell amount than vehicle control
[1] = compound: C=C(C)C(=O)OCC(F)(F)C(F)(F)C(F)(F)F [2,2,3,3,4,4,4-Heptafluorobutyl methacrylate]; settings: 2200 nM; in DMSO
Method: (§1)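 BioMAP Diversity Plus panel of 12 human primary cell co-culture systems (3C, 4H, LPS, SAg, BT, BF4T, BE3C, CASM3C, HDF3CGF, KF3CT, MyoF, Mphg). Compounds were added 1 h before stimulation and left for 24 h (MyoF 48 h; BT 72 h for soluble read-outs or 6 d for IgG). Biomarkers were read by ELISA, cytotoxicity by SRB, PBMC viability and proliferation by Alamar Blue. Each well value was divided by the mean of 8 DMSO control wells on the same plate and log10 transformed; duplicate blinded samples were tested at 4 concentrations.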

[2] = compound: C=CC(=O)OCC(F)(F)C(F)(F)C(F)(F)C(F)(F)COC(=O)C=C [1H,1H,6H,6H-Perfluorohexane-1,6-diol diacrylate]; settings: 2200 nM; in DMSO
Method: as §1

[3] = compound: FC(F)(F)C(F)(F)C(F)(F)C(F)(F)C(F)(F)C(F)(F)C(F)(F)CCI [1-Iodo-1H,1H,2H,2H-perfluorononane]; settings: in DMSO
Method: as §1

[4] = compound: FC(F)(F)C(F)(F)C(F)(F)C(F)(F)C(F)(F)C(F)(F)C(F)(F)I [1-Iodopentadecafluoroheptane]; settings: in DMSO
Method: as §1

[5] = compound: FC(F)C(F)(F)COCC1CO1 [((2,2,3,3-Tetrafluoropropoxy)methyl)oxirane]; settings: 2200 nM; in DMSO
Method: as §1

[6] = compound: NC(=O)C(F)(F)C(F)(F)C(F)(F)C(F)(F)C(F)(F)C(F)(F)C(F)(F)F [Perfluorooctanamide]; settings: 2200 nM; in DMSO
Method: as §1

[7] = compound: O=C(O)C(F)(F)C(F)(F)C(F)(F)C(F)(F)C(F)(F)C(F)(F)C(F)(F)C(F)(F)C(F)(F)C(F)(F)F [Perfluoroundecanoic acid]; settings: in DMSO
Method: as §1

[8] = compound: O=C(O)C(F)(F)C(F)(F)C(F)(F)C(F)(F)C(F)(F)C(F)(F)C(F)(F)C(F)F [9-H-Perfluorononanoic acid]; settings: 2200 nM; in DMSO
Method: as §1

[9] = compound: O=C(O)C(F)(F)C(F)(F)C(F)(F)F [Perfluorobutanoic acid]; settings: 2200 nM; in DMSO
Method: as §1

[10] = compound: O=C(O)C(F)(F)C(F)(F)F [Perfluoropropanoic acid]; settings: 2200 nM; in DMSO
Method: as §1

[11] = compound: O=C(O)C(F)(F)C(F)(F)OC(F)(F)F [Perfluoro-3-methoxypropanoic acid]; settings: 2200 nM; in DMSO
Method: as §1

[12] = compound: O=C(O)C(F)(F)OC(F)(F)C(F)(F)OC(F)(F)C(=O)O [Perfluoro-3,6-dioxaoctane-1,8-dioic acid]; settings: 2200 nM; in DMSO
Method: as §1

[13] = compound: O=C(O)C(F)(F)OC(F)(F)C(F)(F)OC(F)(F)C(F)(F)C(F)(F)C(F)(F)F [Perfluoro-3,6-dioxadecanoic acid]; settings: 2200 nM; in DMSO
Method: as §1

[14] = compound: O=C(O)C=CC(F)(C(F)(F)F)C(F)(F)F [3-(Perfluoroisopropyl)-2-propenoic acid]; settings: in DMSO
Method: as §1

[15] = compound: O=P(O)(O)CCC(F)(F)C(F)(F)C(F)(F)C(F)(F)C(F)(F)C(F)(F)C(F)(F)C(F)(F)F [((Perfluorooctyl)ethyl)phosphonic acid]; settings: 2200 nM; in DMSO
Method: as §1

[16] = compound: O=S(=O)(Cl)C(F)(F)C(F)(F)C(F)(F)C(F)(F)C(F)(F)C(F)(F)C(F)(F)C(F)(F)F [Perfluoro-1-octanesulfonyl chloride]; settings: 2200 nM; in DMSO
Method: as §1

[17] = compound: OCC(F)(F)C(F)(F)C(F)(F)C(F)(F)C(F)(F)C(F)(F)C(F)(F)C(F)(F)C(F)(F)C(F)(F)C(F)(F)F [11:1 Fluorotelomer alcohol]; settings: in DMSO
Method: as §1

[18] = compound: OCCC(F)(F)C(F)(F)C(F)(F)C(F)(F)C(F)(F)C(F)(F)C(F)(F)C(F)(F)F [8:2 Fluorotelomer alcohol]; settings: 2200 nM; in DMSO
Method: as §1

Test System | level (log10) [1] | level (log10) [2] | level (log10) ([3]; 740 nM) | level (log10) ([3]; 2200 nM) | level (log10) ([3]; 6700 nM) | level (log10) ([3]; 20000 nM) | level (log10) ([4]; 740 nM) | level (log10) ([4]; 2200 nM) | level (log10) ([4]; 6700 nM) | level (log10) ([4]; 20000 nM) | level (log10) [5] | level (log10) [6] | level (log10) ([7]; 740 nM) | level (log10) ([7]; 2200 nM) | level (log10) [8] | level (log10) [9] | level (log10) [10] | level (log10) [11] | level (log10) [12] | level (log10) [13] | level (log10) ([14]; 2200 nM) | level (log10) ([14]; 6700 nM) | level (log10) ([14]; 20000 nM) | level (log10) ([14]; 60000 nM) | level (log10) [15] | level (log10) [16] | level (log10) ([17]; 370 nM) | level (log10) ([17]; 1100 nM) | level (log10) ([17]; 3300 nM) | level (log10) ([17]; 10000 nM) | level (log10) [18]
BE3C:SRB | -0.011 ± 0.0057 | -0.0005 ± 0.015 | -0.001 ± 0.0028 | -0.006 ± 0.0042 | -0.0035 ± 0.0021 | 0.0005 ± 0.00071 | 0.002 ± 0.0028 | 0.004 | 0.0095 ± 0.00071 | 0.0085 ± 0.0035 | 0.0135 ± 0.0064 | 0.003 ± 0.0057 | 0.009 ± 0.0014 | 0.0005 ± 0.00071 | -0.0015 ± 0.0021 | 0.006 ± 0.021 | -0.0045 ± 0.00071 | 0.0025 ± 0.016 | -0.0025 ± 0.0035 | 0.013 ± 0.0057 | 0.0065 ± 0.026 | -0.0005 ± 0.005 | -0.002 ± 0.0014 | 0.013 ± 0.021 | 0.005 ± 0.0071 | 0.0115 ± 0.023 | -0.014 ± 0.0057 | -0.03 ± 0.014 | -0.0485 ± 0.005 | -0.0235 ± 0.0064 | 0.0045 ± 0.015
LPS:CD141/Thrombomodulin | -0.011 ± 0.016 | -0.0075 ± 0.013 | 0.0025 ± 0.028 | -0.029 ± 0.03 | -0.0265 ± 0.0021 | -0.024 ± 0.0057 | 0.0245 ± 0.044 | -0.013 | 0.0215 ± 0.023 | -0.024 ± 0.075 | -0.0055 ± 0.019 | 0.0185 ± 0.005 | 0.0185 ± 0.0021 | 0.036 ± 0.013 | 0.0405 ± 0.0035 | 0.0075 ± 0.069 | -0.014 ± 0.044 | 0.027 ± 0.067 | 0.001 ± 0.038 | -0.01 ± 0.0014 | -0.022 ± 0.025 | -0.024 ± 0.037 | -0.022 ± 0.0057 | -0.036 ± 0.02 | -0.003 ± 0.016 | -0.0305 ± 0.056 | -0.0265 ± 0.021 | -0.0285 ± 0.015 | -0.0185 ± 0.012 | -0.0035 ± 0.013 | -0.0285 ± 0.12
3C:CD87/uPAR | 0.0025 ± 0.0035 | 0.0265 ± 0.0064 | 0.0065 ± 0.00071 | -0.0165 ± 0.0035 | 0.0105 ± 0.019 | 0.0225 ± 0.016 | -0.0115 ± 0.022 | -0.0055 ± 0.00071 | -0.0165 ± 0.018 | -0.0175 ± 0.0078 | 0.0135 ± 0.0035 | 0.0055 ± 0.0035 | 0.0015 ± 0.0021 | -0.003 ± 0.018 | -0.007 ± 0.0028 | -0.011 ± 0.0071 | -0.0055 ± 0.012 | 0.0165 ± 0.026 | 0.0175 ± 0.025 | 0.017 ± 0.0085 | 0.0435 ± 0.036 | 0.025 ± 0.0071 | 0.033 ± 0.038 | 0.0465 ± 0.042 | 0.0475 ± 0.063 | 0.0065 ± 0.042 | 0.0165 ± 0.039 | -0.024 ± 0.023 | -0.013 ± 0.024 | -0.003 ± 0.011 | 0.007 ± 0.011
KF3CT:CD54/ICAM-1 | 0.004 ± 0.0071 | -0.02 ± 0.014 | 0.008 ± 0.0071 | -0.009 ± 0.016 | -0.0045 ± 0.0092 | -0.0175 ± 0.025 | -0.007 ± 0.017 | -0.026 ± 0.014 | -0.015 ± 0.0085 | -0.018 ± 0.021 | -0.016 ± 0.018 | 0.0085 ± 0.03 | -0.018 ± 0.0099 | -0.0225 ± 0.0092 | -0.0045 ± 0.033 | 0.012 ± 0.016 | 0 ± 0.011 | 0.0105 ± 0.037 | 0.014 ± 0.02 | -0.022 ± 0.025 | 0.0025 ± 0.037 | 0.0075 ± 0.013 | 0.011 ± 0.018 | -0.0025 ± 0.029 | 0.0125 ± 0.0021 | 0.006 ± 0.028 | 0 ± 0.0099 | -0.014 ± 0.0071 | -0.0295 ± 0.0021 | -0.0045 ± 0.012 | -0.01 ± 0.024
3C:CXCL8/IL-8 | 0.028 ± 0.079 | 0.0075 ± 0.05 | 0.0045 ± 0.036 | -0.0175 ± 0.016 | 0.0085 ± 0.011 | 0.0165 ± 0.005 | 0.026 ± 0.061 | 0.004 ± 0.03 | 0.004 ± 0.0057 | 0.0655 ± 0.021 | 0.0055 ± 0.032 | -0.004 ± 0.017 | 0.0285 ± 0.05 | 0.0015 ± 0.0035 | -0.013 ± 0.018 | -0.0065 ± 0.042 | 0.027 ± 0.048 | 0.014 ± 0.0057 | 0.005 ± 0.011 | 0.01 ± 0.025 | 0.007 ± 0.0099 | -0.001 ± 0.038 | -0.0275 ± 0.0092 | 0.028 ± 0.033 | 0.0325 ± 0.042 | 0.0465 ± 0.061 | -0.018 ± 0.034 | -0.022 ± 0.027 | -0.0245 ± 0.046 | 0.019 ± 0.082 | 0.0235 ± 0.087
HDF3CGF:Proliferation 72hr | -0.017 ± 0.062 | -0.333 ± 0.019 | -0.0555 ± 0.0092 | -0.0545 ± 0.023 | -0.689 ± 0.0092 | -0.815 ± 0.25 | -0.001 ± 0.0057 | 0.008 ± 0.0042 | -0.0275 ± 0.005 | -0.135 ± 0.02 | -0.0835 ± 0.018 | -0.0175 ± 0.044 | 0.0415 ± 0.00071 | 0.0885 ± 0.0035 | -0.0055 ± 0.032 | 0.002 ± 0.05 | -0.018 ± 0.045 | -0.0105 ± 0.026 | -0.0235 ± 0.079 | -0.0365 ± 0.12 | -0.0485 ± 0.098 | -0.033 ± 0.083 | 0.0165 ± 0.086 | 0.04 ± 0.073 | -0.02 ± 0.061 | 0.0625 ± 0.016 | -0.034 ± 0.078 | -0.015 ± 0.065 | 0 ± 0.0099 | 0.021 ± 0.02 | -0.03 ± 0.031
HDF3CGF:CCL2/MCP-1 | 0.006 ± 0.0057 | -0.05 ± 0.0014 | -0.0045 ± 0.018 | -0.0245 ± 0.015 | -0.034 ± 0.017 | -0.018 ± 0.016 | -0.005 ± 0.011 | -0.0235 ± 0.013 | -0.0205 ± 0.025 | -0.0335 ± 0.0035 | 0.0005 ± 0.005 | -0.021 ± 0.011 | 0.0085 ± 0.033 | -0.0195 ± 0.011 | -0.0095 ± 0.021 | 0.0205 ± 0.033 | -0.0045 ± 0.032 | -0.013 ± 0.0071 | -0.015 ± 0.0014 | 0.0005 ± 0.022 | -0.0125 ± 0.03 | -0.006 ± 0.018 | 0.006 ± 0.0085 | 0.017 ± 0.017 | 0.037 ± 0.025 | -0.04 ± 0.078 | -0.0005 ± 0.035 | 0.0305 ± 0.033 | 0.0075 ± 0.0064 | 0.0095 ± 0.015 | -0.0135 ± 0.03
